# Test results reported in PubChem BioAssay AID540275 (National Center for Advancing Translational Sciences (NCATS), 2011).
# The chains behind the UniProt entries cited, without tags or fusion partners.
# UniProt Q8NER1, whole entry, looked up: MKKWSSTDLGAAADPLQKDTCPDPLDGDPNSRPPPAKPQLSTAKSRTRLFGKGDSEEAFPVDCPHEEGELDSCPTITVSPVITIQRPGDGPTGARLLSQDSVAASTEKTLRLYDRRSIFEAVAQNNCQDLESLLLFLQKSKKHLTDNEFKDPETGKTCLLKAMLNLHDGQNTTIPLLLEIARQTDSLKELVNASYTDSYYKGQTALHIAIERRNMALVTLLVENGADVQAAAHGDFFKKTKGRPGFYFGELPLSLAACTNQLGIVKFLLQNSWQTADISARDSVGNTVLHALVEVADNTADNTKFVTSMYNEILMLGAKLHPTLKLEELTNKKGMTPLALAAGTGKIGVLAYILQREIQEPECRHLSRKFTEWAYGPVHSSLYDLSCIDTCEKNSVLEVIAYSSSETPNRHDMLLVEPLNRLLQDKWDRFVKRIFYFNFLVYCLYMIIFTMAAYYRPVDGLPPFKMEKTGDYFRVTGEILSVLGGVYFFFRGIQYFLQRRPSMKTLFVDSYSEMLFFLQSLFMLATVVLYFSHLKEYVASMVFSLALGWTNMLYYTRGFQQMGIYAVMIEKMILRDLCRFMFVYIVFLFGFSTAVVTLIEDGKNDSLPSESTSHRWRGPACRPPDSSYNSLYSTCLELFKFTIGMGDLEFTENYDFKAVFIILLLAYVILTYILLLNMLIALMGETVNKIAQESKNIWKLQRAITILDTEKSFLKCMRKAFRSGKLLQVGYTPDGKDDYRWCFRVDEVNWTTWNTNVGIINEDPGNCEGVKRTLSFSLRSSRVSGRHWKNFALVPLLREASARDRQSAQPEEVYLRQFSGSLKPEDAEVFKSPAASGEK
# Hit rate of the full screen: of about 320,000 compounds, about 620 (0.19%) were called active. The inconclusive results got no clear call from the source; some entries with a clear call stand among them for comparison. No stated cut-off is given here; in the data, active means activation above about 80%; inconclusive means between about 30% and that limit; inactive means weaker than that.
# Biological target: Transient receptor potential cation channel subfamily V member 1 (Homo sapiens) (UniProt Q8NER1)
# Experiment: HTS Assay for Compounds that Act as Agonists of the Vanilloid Receptor 1; further: 0% is about no effect
# Conditions: TRPV1-expressing cells, Fluo-8 calcium influx, agonist mode; at 8.33 µM, stronger effect = higher value
# Method in brief: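 Fluo-8 calcium influx in TRPV1-expressing cells, kinetic read (ex 480/em 520 nm). Compound added and read 3 min for agonist activity, followed by capsaicin at EC20 final and 2 min further read for enhancement.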
row,SMILES,activation
1,COc1ccc(CN2CCC(CNS(=O)(=O)c3cccc(C(F)(F)F)c3)CC2)cc1,inactive: 1.94%
2,O=C(Nc1ccc(N=Nc2ccccc2)c(NC(=O)C2CCCO2)c1)C1CCCO1 (centres undefined),inconclusive: 39%
3,O=C(CCc1ccc(O)cc1)c1c(O)cc(O)cc1O,inactive: -0.405%
4,O=C(Nc1ccccc1F)c1ccc(-c2cccc([N+](=O)[O-])c2)o1,inconclusive: 36.6%
5,CCc1c(C)nc2ncnn2c1N1CCC(C(=O)Nc2ccccc2)CC1,inactive: -1.1%
6,O=C(Nc1ccc(Cl)c(S(=O)(=O)N2CCCCC2)c1)C1=COCCO1,inconclusive: 58.9%
7,O=C(NCc1ccc(Cl)cc1)c1ccc(Cl)cc1[N+](=O)[O-],inconclusive: 35.4%
8,O=C1CCCc2[nH]c3cccc(/C(=C/c4ccccc4)c4ccccc4)c3c21,inconclusive: 41.9%
9,O=C(N/N=C/c1ccccc1O)C1CC(=O)N(c2ccc(Cl)cc2)C1 (centres undefined),inconclusive: 56.7%
10,COc1ccc(C)cc1NC(=O)C1CCCN(S(=O)(=O)c2ccc(-n3cnnn3)cc2)C1 (centres undefined),inactive: 29.1%
11,CN1C(=O)/C(=C2/C=Cc3ccccc3N2CCCS(=O)(=O)O)SC1=S,inactive: -2.09%
12,Cc1ccc(-c2nn(-c3ccccc3)cc2C2SCC(=O)N2Cc2ccccc2)o1 (centres undefined),inactive: 14.6%
13,CC(C)N(Cc1ccccc1)C(=O)C1CCCN(c2ncnc3c2nc2n3CCCCC2)C1 (centres undefined),inconclusive: 46.2%
14,COc1cccc(COC(=O)c2ccc(S(=O)(=O)N3CCC(C)CC3)cc2)c1OC,inactive: 4.4%
15,C=CCNC(=O)/C(C#N)=C/c1ccc(SC)cc1,inconclusive: 32.2%
16,CC(C)(C)C(=O)Nc1ccc(C(=O)N/N=C/C2CC3C=CC2C3)cc1 (centres undefined),inconclusive: 33.4%
17,COc1ccc(CC(=O)OCC(=O)Nc2ncc(Cl)cc2Cl)cc1OC,inconclusive: 65%
18,Cc1ccc(NC(=O)c2ccc(OC(=O)COc3cccc(Cl)c3)cc2)cc1,inconclusive: 64%
19,CCN(CC)S(=O)(=O)c1ccc(N2CCOCC2)c(NC(=O)c2cc(-c3ccccn3)nc3ccccc23)c1,inconclusive: 30.7%
20,Cc1ccc(S(=O)(=O)Cn2nnnc2C(C(C)C)N2CCN(c3nc4ccccc4s3)CC2)cc1 (centres undefined),inactive: -1.62%
21,CCOc1ccc(S(=O)(=O)NC(C)(C)C)cc1-c1nc2c(C(C)(C)C)nn(C)c2c(=O)[nH]1,inconclusive: 46.1%
22,CCOc1cc(/C=C2/C(=O)ON=C2C)ccc1OCc1ccccc1,inconclusive: 37.3%
23,CCN1C(=S)SC(=O)C1=C1C=C(C)N(Cc2ccco2)C(C)=C1,inactive: -1.24%

row,SMILES,activation
1,Nn1cnc2c([nH]c3ccccc32)c1=O,inactive: -8.61%
2,CCOCC(=O)Nc1cccc(OC)c1,inactive: -0.212%
3,CCOC(=O)N1CCN(S(=O)(=O)c2cc(-c3nn4c(C)nnc4c4ccccc34)ccc2C)CC1,inconclusive: 46.9%
4,O=C(CN1CCCCCC1)Nc1cc([N+](=O)[O-])ccc1Cl,inactive: 1.12%
5,CCCc1ccc(NC(=O)C2CCN(c3cnccn3)CC2)cc1,inconclusive: 74.8%
6,O=C(Nc1nnc(SCc2ccc(F)cc2)s1)c1ccccn1,inactive: 17.5%
7,CC(C)n1ncc2c(C(=O)Nc3ccc(S(N)(=O)=O)cc3)cc(C3CC3)nc21,active: 80.9%
8,COCCNC(=O)c1ccccc1NC(=O)CN(c1ccc2c(c1)OCO2)S(C)(=O)=O,inactive: 0.0398%
9,COCCCNC(=S)N(Cc1ccccc1)Cc1ccc(F)cc1,inconclusive: 31.4%
10,CCOC(=O)c1c(CSc2ccsc2)n(C)c2cc(Br)c(O)c(CN(C)C)c12,inactive: 14.5%
11,CC(=O)c1ccc(N2CCN(C(=O)Nc3cccc(F)c3)CC2)cc1,inconclusive: 53.1%
12,CCCCOC(=O)Nc1ccc(C(=O)OC)cc1,inconclusive: 45%
13,CCOC(=O)N1CCN(c2nc(N(c3ccccc3)c3ccccc3)nc(-n3ccnc3)n2)CC1,inconclusive: 41.6%
14,CCc1ccc(NC(=S)Nc2ccc3cn[nH]c3c2)cc1,inconclusive: 50%
15,O=C(CCS(=O)(=O)c1ccccc1)N1CCN(c2cccc(C(F)(F)F)c2)CC1,inconclusive: 35.9%
16,Cc1ccc2nc(NC(=O)c3cccs3)sc2c1,inconclusive: 62.3%
17,O=C(C[n+]1cc(-c2ccc(F)cc2)n2c1CCC2)Nc1nc(-c2ccc(F)cc2)cs1,inactive: -2.77%
18,COc1ccc(CSc2nc3ccccc3[nH]2)cc1,inconclusive: 49.1%
19,O=C(N/N=C/c1cccnc1)c1ccccc1Cl,inconclusive: 61%
20,Cc1cccc(N2CCN(C(=O)c3ccoc3C)CC2)c1C,inconclusive: 58.8%
21,CCCCSc1nc2ccc(Nc3nc(N4CCOCC4)nc(N4CCOCC4)n3)cc2s1,inactive: -4.49%
22,COc1ccc2cc(C(=O)C3CCCN(C(=O)Cc4c(C)noc4C)C3)ccc2c1 (centres undefined),inconclusive: 65.5%
23,Cc1cc(C)c2nc(NC(=O)[C@@H](NC(=O)c3cccc(S(=O)(=O)N4CCOCC4)c3)C(C)C)sc2c1,inconclusive: 48.3%

# 5 successive compounds from above, quoted:
row,SMILES,activation
11,CC(=O)c1ccc(N2CCN(C(=O)Nc3cccc(F)c3)CC2)cc1,inconclusive: 53.1%
12,CCCCOC(=O)Nc1ccc(C(=O)OC)cc1,inconclusive: 45%
13,CCOC(=O)N1CCN(c2nc(N(c3ccccc3)c3ccccc3)nc(-n3ccnc3)n2)CC1,inconclusive: 41.6%
14,CCc1ccc(NC(=S)Nc2ccc3cn[nH]c3c2)cc1,inconclusive: 50%
15,O=C(CCS(=O)(=O)c1ccccc1)N1CCN(c2cccc(C(F)(F)F)c2)CC1,inconclusive: 35.9%

# Continued.

row,SMILES,activation
1,CCCc1cc(NC(=O)COC(=O)c2nccnc2N)n(-c2ccccc2)n1,inactive: 0.64%
2,Cc1nc2c(O)cccc2cc1CO,inactive: 4.72%
3,CC(=O)N1N=C(c2ccc(Cl)cc2)CC1c1ccco1 (centres undefined),inactive: 2.97%
4,CC(=O)N1CCN(c2ccc(NC(=S)NC(=O)/C=C/c3ccccc3)cc2)CC1,inactive: 0.111%
5,COc1cc(C=O)ccc1Oc1nc(Nc2ccc(F)cc2F)nc(N2CCOCC2)n1,inconclusive: 32.3%
6,COc1ccc(CNC(=O)COC(=O)c2cc(-c3cccs3)nc3ccccc23)cc1OC,active: 88%
7,Cc1ccccc1-n1ncc2c1CC(C)(C)CC2NC(=O)C1CCC1 (centres undefined),inconclusive: 61.9%
8,CCc1ccc(NC(=O)c2cc(C)on2)cc1,inconclusive: 75.8%
9,CC(=O)c1ccc(N2CCN(C(=O)CCCn3c(=O)[nH]c4ccc(Br)cc4c3=O)CC2)cc1,inactive: -7.57%
10,COc1ccccc1NC(=O)CSc1nnc(CCNC(=O)c2ccc(C)cc2)n1C,inactive: -4.29%
11,Cc1nc2ccccc2n1CCCOc1ccccc1,inconclusive: 44.8%
12,Cc1nc2ccccn2c1C(=O)C(=O)Nc1cc(F)ccc1F,inconclusive: 45.1%
13,c1ccc(COn2nnc3ccccc32)c(COn2nnc3ccccc32)c1,inconclusive: 54.1%
14,O=C(Nc1ccccc1C(=O)NC(Cc1ccccc1)C(=O)NC1CCCCC1)c1ccccc1 (centres undefined),inconclusive: 45.9%
15,Cc1cccc(N2CCN(S(=O)(=O)c3ccc4[nH]c(=O)ccc4c3)CC2)c1C,inconclusive: 47.5%
16,C=CCNC(=O)c1sc(SC)cc1-c1ccc(Cl)cc1,inconclusive: 63.2%
17,Cc1ccc(C23CC4CC(CC(NC(=O)NC(C)(C)CO)(C4)C2)C3)cc1,inconclusive: 31.7%
18,COc1ccc(C(=O)NC2CCCN(Cc3ccc(Cl)cc3)C2)c(OC)c1 (centres undefined),inconclusive: 37.9%
19,COc1ccc(N2C(=O)NC3CC2(C)Oc2ccccc23)cc1 (centres undefined),inactive: -6.93%
20,NC(=O)c1ccccc1NC(=O)Nc1cccc2ccccc12,inconclusive: 41.4%
21,Clc1cccc(-c2nnc(SCc3nc4ccccc4[nH]3)n2Cc2ccco2)c1,inactive: 9.66%
22,COc1cc2c(cc1OC)CN(C(=S)Nc1ccccc1Cl)CC2,inconclusive: 45%
23,COc1cccc(CN(C)C(=O)c2cc(COc3c(F)cccc3F)on2)c1,inactive: 25.6%

row,SMILES,activation
1,O=C1CSCC(=O)N1Cc1ccc(Cl)c(Cl)c1,inconclusive: 32%
2,O=C(Nc1ccc(F)cc1F)c1ccc2c(c1)OCCO2,inconclusive: 32.7%
3,COc1c(C)cccc1C(=O)Nc1ccc(CN2CCOCC2)cc1,inconclusive: 33.3%
4,Cc1nc2ccccc2n1C1CCN(CC(=O)Nc2ccccc2Br)CC1,inactive: 15.5%
5,O=C(NCc1ccc2c(c1)OCO2)c1ccc(Cl)s1,inconclusive: 40.8%
6,Cc1ccc(CNC(=O)C2CCCN(S(=O)(=O)N3CC(C)CC(C)C3)C2)cc1 (centres undefined),inconclusive: 32%
7,Cc1c2c(nc3ccccc13)CCC(C(C)(C)C)C2 (centres undefined),inconclusive: 45.9%
8,O=C(NNS(=O)(=O)c1ccc([N+](=O)[O-])cc1)C(=O)Nc1cccc(C(=O)O)c1,inactive: -0.319%
9,O=C(/C=C/c1ccc(Cl)cc1)N1CCOCC1,inconclusive: 74.6%
10,Cc1cccc(C(=O)O/N=C(\N)c2cccc([N+](=O)[O-])c2)c1,inconclusive: 37.2%
11,COc1ccc(NC(=O)c2cccc(S(=O)(=O)N(C)c3ccccc3)c2)cn1,inconclusive: 43.4%
12,COC1c2ccccc2C(=O)N1CCc1ccc(Cl)cc1 (centres undefined),inconclusive: 44.4%
13,O=C(c1ccc([N+](=O)[O-])cc1)N(Cc1ccc(Br)cc1)N1C(=O)CCCC1=O,inactive: -1.17%
14,COc1ccc(CCCC(=O)Nc2ccc(F)cc2)cc1,inconclusive: 58.4%
15,Cc1ccc(NC(=S)NCc2ccccc2Cl)c(C)c1,inconclusive: 35.9%
16,O=C(Cc1nc2ccccc2[nH]1)c1ccc(Cl)cc1,inactive: 1.31%
17,CCOC(=O)[C@H]1[C@H]2COc3ccc(Cl)cc3[C@@H]2N2C(=O)c3cc(Br)ccc3NC(=O)[C@@]12C,inconclusive: 67.8%
18,COc1ccc(Cn2c(O)c(C=Nc3ccc(O)cc3)c3ccccc3c2=O)cc1,inconclusive: 38.5%
19,COC(=O)C(Cc1ccccc1)NC(=S)NC(=O)c1ccccc1 (centres undefined),inconclusive: 56.9%
20,Cc1cccc(C)c1OCc1cc(C(=O)NC2CCC(O)CC2)no1 (centres undefined),inactive: 23.8%
